# Reference: PubChem BioAssay AID1347131 (National Center for Advancing Translational Sciences (NCATS), 2019)
# Out of some 410,000 compounds screened, about 2,000 (0.49%) were called active. Inconclusive results, whose numbers are uncertain, are shown with a selection of clear calls. The call rests on the fitted dose curve; tested in HEK293 reporter line. Where the call is inconclusive, the potency comes from a doubtful curve fit.
# Assay: qHTS Assay for Foot and Mouth Disease Virus Antivirals: Primary Screen against the MLPCN compound library; further: nearly all actives have a fitted effect of over 55% in size
# Details: FMDV antiviral cell-based qHTS; activity, negative = inhibition: at 57.9 µM (top of the series)
# Potency means the concentration at half of the fitted maximal effect.
Structure (SMILES),Potency,"activity, negative = inhibition"
COc1ccc(N(CC(=O)N2CCN(c3cccc(Cl)c3)CC2)S(=O)(=O)c2c(C)noc2C)cc1,"inconclusive: 8.91 µM [inhibitor, partial curve]",–
Cc1ccc(S(=O)(=O)N2C[C@]3(O)C[C@@H]4C(=O)N(c5ccccc5)C(=O)[C@@H]4C[C@]3(OC(=O)NC3CCCC3)C2)cc1,"inconclusive: 15.8 µM [inhibitor, partial curve, poor fit]",–
COc1cccc(OCCCN2CCN(S(=O)(=O)c3ccc(NC(C)=O)cc3)CC2)c1,"inconclusive: 14.1 µM [inhibitor, partial curve, poor fit]",–
COc1ccc([N+](=O)[O-])cc1NC(=O)Nc1ccc(OC)c(OC)c1,"inconclusive: 35.5 µM [inhibitor, partial curve, poor fit]",–
Cc1cc(F)ccc1NC(=O)C1CCCN(C(=O)c2cnn(-c3ccccc3)c2-n2cccc2)C1 (configuration not stated),"inconclusive: 28.2 µM [inhibitor, partial curve, poor fit]",–
O=C(Cn1ncc(Cl)c(Cl)c1=O)NC(=O)NC1CCCCC1,"inconclusive: 35.5 µM [inhibitor, partial curve, poor fit]",–
COCCN(Cc1ccc(C)c(Br)c1)S(=O)(=O)c1ccc2[nH]c(=O)ccc2c1,"inconclusive: 11.2 µM [inhibitor, single point]",–
CN1CCN(c2ccc(NC(=O)c3ccc4ccccc4c3)cc2)CC1,active: 22.4 µM,–
Cc1cccc(CCNC(=O)CCS(=O)(=O)c2ccc3nc(C)sc3c2)c1,"inconclusive: 3.98 µM [inhibitor, partial curve]",–
CC(OC(=O)c1cccc(S(=O)(=O)Nc2cccc(C(F)(F)F)c2)c1)C(=O)Nc1ccc2c(c1)OCCO2 (configuration not stated),"inconclusive: 39.8 µM [inhibitor, single point]",–
Cc1ccnc(Nc2nc(-c3ccc(F)cc3)cs2)c1,"inconclusive: 31.6 µM [inhibitor, single point]",–
FC(F)(F)c1cccc(NCc2n[nH]c(=S)n2C2CCCCC2)c1,–,inconclusive: -35.8% [inhibitor]
COC(=O)c1c(C)oc(C)c1S(=O)(=O)NCC1CC1,inactive,–
Cn1c(SCc2cccc([N+](=O)[O-])c2)nc2c(c1=O)SCC2,"inconclusive: 28.2 µM [inhibitor, partial curve, poor fit]",–
CN1CCN(C(c2ccc(Cl)cc2)c2cc(Cl)c3cccnc3c2O)CC1 (configuration not stated),"inconclusive: 11.2 µM [inhibitor, partial curve]",–
CCn1cc([N+](=O)[O-])c(C(=O)N2CCCC2)n1,"inconclusive: 1.26 µM [inhibitor, full curve]",–
C/C(N)=C(/C#N)C(=O)COc1ccc(Cl)cc1Cl,"inconclusive: 3.16 µM [inhibitor, full curve]",–
O=S(=O)(c1ccc(C(F)(F)F)cc1)N1CCN(CCOc2ccccc2)CC1,"inconclusive: 20 µM [inhibitor, partial curve, poor fit]",–
FC(F)(F)c1nc(-c2cccs2)ncc1-c1nnnn1-c1ccc(Cl)cc1,"inconclusive: 11.2 µM [inhibitor, partial curve, poor fit]",–

# Sorted by SMILES length (smallest number first): three of the compounds above
Structure (SMILES),Potency,"activity, negative = inhibition"
CCn1cc([N+](=O)[O-])c(C(=O)N2CCCC2)n1,"inconclusive: 1.26 µM [inhibitor, full curve]",–
FC(F)(F)c1cccc(NCc2n[nH]c(=S)n2C2CCCCC2)c1,–,inconclusive: -35.8% [inhibitor]
FC(F)(F)c1nc(-c2cccs2)ncc1-c1nnnn1-c1ccc(Cl)cc1,"inconclusive: 11.2 µM [inhibitor, partial curve, poor fit]",–

# Additional entries follow:

Structure (SMILES),Potency,"activity, negative = inhibition"
CC(C)(C)c1ccc(C(=O)NCC(c2cccs2)S(=O)(=O)c2ccc(F)cc2)cc1 (configuration not stated),"inconclusive: 20 µM [inhibitor, partial curve, poor fit]",–
CCCCC(CC)CNC(=O)c1ccc2c(=O)n(CCOC)c(=O)[nH]c2c1 (configuration not stated),inactive,–
CCCCCCCCCCOC(=O)Cn1c(COc2cccc(C)c2)[n+](C)c2ccccc21,"inconclusive: 20 µM [inhibitor, partial curve, poor fit]",–
Nc1cc2sc(-c3ccc(C(=O)O)cc3)nc2cc1Cl,"inconclusive: 12.6 µM [inhibitor, single point]",–
CCn1c(=N)c(C(=O)NC2CCCCC2)cc2c(=O)n3cccc(C)c3nc21,"inconclusive: 3.16 µM [inhibitor, full curve]",–
CN=c1scc(-c2ccccc2F)n1/N=C/c1ccc(O)c(O)c1O,"inconclusive: 3.55 µM [inhibitor, full curve, poor fit]",–
Cc1ccc(-n2nc(CO)c(C(=O)NCC(c3ccccc3)c3ccccc3)n2)cc1,"inconclusive: 7.08 µM [inhibitor, partial curve, poor fit]",–
CC1(C)CCSC(/C=C/c2ccccc2)=N1,"inconclusive: 14.1 µM [inhibitor, partial curve, poor fit]",–
Cc1ccc(C(=O)/C=C/Nc2ccccc2C(N)=O)cc1,"inconclusive: 15.8 µM [inhibitor, single point]",–
O=C1CC2(CCN(C(=O)c3c(F)cccc3Cl)CC2)Oc2ccccc21,"inconclusive: 14.1 µM [inhibitor, partial curve, poor fit]",–
Cc1ccc(CCNC(=O)C2CCN(S(=O)(=O)c3ccc4c(c3)NC(=O)C(C)S4)CC2)cc1 (configuration not stated),"inconclusive: 31.6 µM [inhibitor, partial curve, poor fit]",–
C=C(C)COc1ccc(-c2n[nH]c(C)c2-c2ccc(OC)cc2)c(O)c1,"inconclusive: 25.1 µM [inhibitor, partial curve, poor fit]",–
CCc1ccc(S(=O)(=O)N/N=C\c2ccc3c(c2)OCO3)cc1,inactive,–
CCC(C)NC(=O)COC(=O)c1csc2c1CCCC2 (configuration not stated),"inconclusive: 3.55 µM [inhibitor, partial curve, poor fit]",–
CCOc1ccc(C(=O)Nc2cccc(-c3cc4ccccc4oc3=O)c2)cc1[N+](=O)[O-],"inconclusive: 8.91 µM [inhibitor, partial curve, poor fit]",–
CCOc1ccc(NC(=O)CN2C(=O)CCSc3ccc(S(=O)(=O)N4CCCC4)cc32)cc1,inactive,–
Cc1cccc(-n2c3nc(=O)[nH]c(=O)c-3cc3cc([N+](=O)[O-])ccc32)c1,"inconclusive: 35.5 µM [inhibitor, partial curve, poor fit]",–
COc1ccc(NC(=O)c2cc(-c3ccc(F)cc3OC(C)C)n[nH]2)cn1,"inconclusive: 20 µM [inhibitor, partial curve, poor fit]",–
